Experimental data: PubChem BioAssay AID1508588 (Peter MacCallum Cancer Centre, 2020)

- Test: 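Knock-downs boosting vemurafenib effects on melanoma cell growth or lactate release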 (primary screen)
- System: human WM266.4 melanoma cells (BRAF V600 mutant)
- Reagent: siRNA pool against human genes, 40 nM
- Time to read-out: 96 h from transfection to read-out
- Conditions: vemurafenib 300 nM (about IC25), added 48 h after transfection, for 48 h; comparison arm got DMSO vehicle only
- Read-out: 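Ratios to non-targeting siRNA for cell gain, counted as DAPI nuclei after minus before drug and averaged over two replicates, and for absorbance-read medium lactate per cell; both binned into fold-change classes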
- Scale: cell gain with vemurafenib: higher = more cell gain than with non-targeting siRNA; lactate per cell with vemurafenib: higher = more lactate made per cell
- Hit rule: 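Enhancement is called by pairing each knock-down's vehicle-arm and drug-arm fold-change classes for viability or glycolysis; which class combinations qualify is not given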
- Calls: active = enhances vemurafenib effect; inactive = no enhancement seen
This is one part, drawn at random, of about 18,000 reagents tested. In the full data, 790 (4.4%) are marked active. 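Calls rest on a combination of fold-change classes in drug and vehicle arms, not all shown here.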 The numbers tell different reagents against one gene apart.

| gene symbol | reagent no. | cell gain with vemurafenib | lactate per cell with vemurafenib | Call |
| --- | --- | --- | --- | --- |
| ACOXL | 1 | 0.3 | 0.68 | active |
| IGSF11 | 1 | 0.84 | 0.56 | inactive |
| CNR2 | 1 | 0.44 | 1.23 | inactive |
| SLC4A3 | 1 | 0.34 | 0.94 | inactive |
| UGDH | 1 | 0.55 | 0.41 | inactive |
| PI3 | 1 | 0.26 | 1.02 | inactive |
| KRT82 | 1 | 1.03 | 0.42 | inactive |
| LRP2BP | 1 | 0.29 | 1.38 | inactive |
| ASB5 | 1 | 0.75 | 0.89 | inactive |
| LRRC1 | 1 | 0.8 | 0.54 | inactive |
| ELL3 | 1 | 0.75 | 1.06 | inactive |
| PEX12 | 1 | 0.17 | 1.82 | inactive |
| TRIM38 | 1 | 0.49 | 1.25 | inactive |
| SPATS2L | 1 | 0.77 | 1.54 | inactive |
| PRR13 | 1 | 1.19 | 0.72 | inactive |
| TAS2R16 | 1 | 0.5 | 0.95 | inactive |
| ERCC8 | 1 | 0.58 | 0.9 | inactive |
| DLL4 | 1 | 0.93 | 0.7 | inactive |
| ZNF672 | 1 | 0.05 | 1.34 | inactive |
| TLE5 | 1 | 0.67 | 1.34 | inactive |
| ADAM18 | 1 | 0.26 | 0.38 | active |
| PPP1R36 | 1 | 0.43 | 0.82 | inactive |
| ZNF767P | 1 | 0.5 | 1.8 | inactive |
| WIF1 | 1 | 0.14 | 1.64 | inactive |
| ECT2L | 1 | 0.14 | 1.48 | inactive |
| COX18 | 1 | 0.9 | 1.13 | inactive |
| TTL | 1 | 0.95 | 0.76 | inactive |
| FOXJ2 | 1 | 0.49 | 1.34 | inactive |
| ZFP36L2 | 1 | 0.7 | 0.43 | inactive |
| GLT8D2 | 1 | 0.5 | 1.19 | inactive |
| TOR1B | 1 | 0.43 | 0.86 | inactive |
| TREML1 | 1 | 0.1 | 1.89 | inactive |
| DCANP1 | 1 | 0.43 | 1.06 | inactive |
| LCOR | 1 | 0.66 | 1.65 | inactive |
| LCOR | 2 | 0.58 | 0.88 | inactive |
| PNLIPRP3 | 1 | 1.15 | 0.44 | inactive |
| RNF182 | 1 | 0.9 | 0.84 | inactive |
| ASPHD1 | 1 | 0.53 | 0.94 | inactive |
| LRIT1 | 1 | 0.18 | 0.83 | inactive |
| TMEM39A | 1 | 0.49 | 0.73 | inactive |
| ZNF417 | 1 | 1.06 | 0.46 | inactive |
| NEO1 | 1 | -0.01 | 2.97 | inactive |
| ACTG1 | 1 | 0.4 | 1.25 | inactive |
| NCF4 | 1 | 0.48 | 1.04 | inactive |
| NME1 | 1 | 1.1 | 1.21 | inactive |
| NPSR1 | 1 | 0.7 | 0.83 | inactive |
| RPL13A | 1 | -0.12 | 2.06 | inactive |
| BLOC1S5 | 1 | 0.36 | 0.82 | inactive |
| HOXC13 | 1 | 0.37 | 0.7 | inactive |
| RAB25 | 1 | 0.68 | 0.9 | inactive |
| BLID | 1 | 0.24 | 0.79 | inactive |
| DNAJC3 | 1 | 0.51 | 0.86 | inactive |
| KRTAP10-5 | 1 | 0.62 | 0.29 | inactive |
| TEDDM1 | 1 | 0.44 | 1.17 | inactive |
| SLC8A1 | 1 | 0.56 | 1.04 | inactive |
| IDE | 1 | 0.75 | 0.54 | inactive |
| OPTC | 1 | 0.3 | 1.36 | inactive |

Not a retest: entries from further up.
| gene symbol | reagent no. | cell gain with vemurafenib | lactate per cell with vemurafenib | Call |
| --- | --- | --- | --- | --- |
| TOR1B | 1 | 0.43 | 0.86 | inactive |
| TREML1 | 1 | 0.1 | 1.89 | inactive |
| DCANP1 | 1 | 0.43 | 1.06 | inactive |
| LCOR | 1 | 0.66 | 1.65 | inactive |
